{"source": "PubChem BioAssay AID504834", "about": "(National Center for Advancing Translational Sciences (NCATS), 2011)", "note": "The whole screen tested about 320,000 compounds, of which about 22,000 (6.9%) were called active. The shares of active, inactive and inconclusive entries below differ from those in the screen. Calls follow the shape of the dose curve; as a rule, active = well fitted inhibition curve with a large enough effect; inconclusive = small, poorly fitted or top-dose-only effect, or another doubt; inactive = no such curve, though single readings can be large or run the other way. Potencies of inconclusive entries are doubtful fits and often do not repeat. % is scaled to controls: 0 for no effect and ±100 for the full control effect; potency is read from the fitted curve at half-maximal effect."}
{"experiment": "Primary qHTS for delayed death inhibitors of the malarial parasite plastid, 96 hour incubation", "settings": "P. falciparum luciferase reporter growth; series mostly up to 28.7 µM; activity change, negative = inhibition: at the top concentration", "outline": "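P. falciparum expressing integrated firefly luciferase grown in erythrocytes (2% hematocrit, 0.05% parasitemia final) with compounds for 96 hours at 37 C, 5% CO2. Growth inhibition read as loss of luminescence after adding luciferase detection reagent.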"}
{"smiles": "COC(=O)CSc1nnc(-c2ccc(OC)cc2OC)o1", "activity change, negative = inhibition": "inactive: 59.4%"}
{"smiles": "CC(C)Nc1ncnc2c1cnn2Cc1ccc(Cl)cc1", "Potency": "inconclusive: 18.5 µM [inhibitor, single point]"}
{"smiles": "CCCNC(=S)Nc1ccc2nc(-c3ccccn3)c(-c3ccccn3)nc2c1", "Potency": "inconclusive: 0.415 µM [inhibitor, full curve, poor fit]"}
{"smiles": "CCc1c(C)nc(N)n2c(SCC(=O)Nc3ccccc3)nnc12", "activity change, negative = inhibition": "inactive: 37.3%"}
{"smiles": "Cc1c(Br)c(C(F)(F)F)nn1CC(=O)NCc1ccco1", "Potency": "inconclusive: 18.5 µM [inhibitor, single point]"}
{"smiles": "Cc1nn(CC(=O)NCCCN2CCCCC2)c(=O)c2cccn12", "Potency": "inconclusive: 16.5 µM [inhibitor, single point]"}
{"smiles": "O=[N+]([O-])c1ccc(-c2nc3ccc([N+](=O)[O-])cc3[nH]2)cc1", "Potency": "inconclusive: 4.15 µM [inhibitor, single point]"}
{"smiles": "COC(=O)C1=C(c2ccc(C(C)=O)cc2)C[C@@H]2CC[C@H]1N2C(=O)NCc1ccc(C(F)(F)F)cc1", "Potency": "inconclusive: 9.28 µM [inhibitor, partial curve]"}
{"smiles": "N#C/C(=C\\c1cn[nH]c1-c1ccc(Cl)cc1)C(=O)NC1CC1", "activity change, negative = inhibition": "inactive: 8.98%"}
{"smiles": "COc1ccc(C(=O)CSc2ccc(-c3ccco3)nn2)cc1", "Potency": "inconclusive: 10.4 µM [inhibitor, single point]"}
{"smiles": "O=C(Nc1ccc(S(=O)(=O)N2C[C@@H]3C[C@@H](C2)c2cccc(=O)n2C3)cc1)c1ccc(F)cc1", "Potency": "inconclusive: 13.1 µM [inhibitor, single point]"}
{"smiles": "Cc1cccn2c(=O)c3cc(S(=O)(=O)c4ccc(F)cc4)c(=N)n(Cc4ccco4)c3nc12", "Potency": "active: 14.7 µM"}
{"smiles": "CC(C)c1cc(C(=O)N2CCCC(N3CCN(c4ccccc4F)CC3)C2)nc(N)n1", "note": "(stereo not given)", "Potency": "inconclusive: 11.7 µM [inhibitor, single point]"}
{"smiles": "CN(CC(=O)Nc1cccc(F)c1)C(=O)CCCc1nc2ccccc2c(=O)[nH]1", "Potency": "inconclusive: 11.7 µM [inhibitor, single point]"}
{"smiles": "COc1ccc(S(=O)(=O)NCCC(C)C)cc1C", "activity change, negative = inhibition": "inactive: 30%"}
{"smiles": "Nc1ccccc1-c1nc2ccccc2c(=O)o1", "Potency": "inconclusive: 14.7 µM [inhibitor, single point]"}
{"smiles": "Cc1ccc(C)c(N2CN(Cc3ccco3)CNC2=S)c1", "Potency": "inconclusive: 2.62 µM [inhibitor, single point]"}
{"smiles": "CC1(C)CC2(C)OC(=N)C1(C#N)C2(C#N)C#N", "note": "(stereo not given)", "activity change, negative = inhibition": "inactive: 9.19%"}
{"smiles": "CC(=O)c1cccc(NC(=O)c2ccc(NC(=O)CCS(=O)(=O)c3cccs3)cc2)c1", "activity change, negative = inhibition": "inactive: 258%"}
{"smiles": "CCn1cc(C(=O)NC(C)C)c(=O)c2cc(F)c(N3CCN(C(=O)c4ccco4)CC3)cc21", "Potency": "active: 5.86 µM"}
{"smiles": "CC(C)(C)c1nn2cnnc2n(/N=C/c2ccc(O)cc2)c1=O", "Potency": "inconclusive: 16.5 µM [inhibitor, single point]"}
{"smiles": "O=C1NC(=O)/C(=C/c2ccc(N3CCOCC3)o2)N1", "Potency": "inconclusive: 3.7 µM [inhibitor, full curve, poor fit]"}
{"smiles": "Cc1cc(N2CCN(c3ccccc3)CC2)nc2ccccc12", "activity change, negative = inhibition": "inactive: 0%"}
{"smiles": "CC1CCC2(CC1)N=C(N)Nc1nc3ccccc3n12", "note": "(stereo not given)", "Potency": "inconclusive: 10.4 µM [inhibitor, single point]"}
{"smiles": "OCc1nc2ccccc2n1CC(O)COc1ccccc1", "note": "(stereo not given)", "activity change, negative = inhibition": "inactive: 19.4%"}
{"smiles": "Cc1cc(NC(=O)Nc2cc(C)nn2-c2ccccc2)n(-c2ccccc2)n1", "activity change, negative = inhibition": "inactive: 0%"}
{"smiles": "CCOC(=O)c1c(N)sc(C(=O)N2CCCCC2)c1C", "Potency": "inconclusive: 18.5 µM [inhibitor, single point]"}
{"smiles": "CCN(CC)c1ccc(NC(=O)CN2CCN(CC(=O)Nc3ccc(F)cc3)CC2)cc1", "Potency": "active: 2.62 µM"}
{"smiles": "N#Cc1ccccc1Cn1cc(C(=O)c2cccs2)c2ccccc21", "activity change, negative = inhibition": "inactive: 0.454%"}
{"smiles": "COC(=O)c1ccc(CN2CCN(Cc3ccc(C(=O)OC)o3)CC2)o1", "Potency": "inconclusive: 13.1 µM [inhibitor, single point]"}
{"smiles": "CCc1cccc(C)c1NC(=S)NCc1ccc2c(c1)cc(C)n2C", "Potency": "active: 6.57 µM"}
{"smiles": "Cc1ccc2cc(-c3noc(C4CCCO4)n3)c(=O)[nH]c2c1", "note": "(stereo not given)", "Potency": "inconclusive: 5.22 µM [inhibitor, partial curve]"}
{"smiles": "c1ccc(N2CCCCC2)c(NC2=NCCC2)c1", "Potency": "inconclusive: 13.1 µM [inhibitor, single point]"}
{"smiles": "COCCCNC(=S)NNC(=O)c1cc(C2CC2)nc2ccccc12", "activity change, negative = inhibition": "inactive: -34.7%"}
{"smiles": "O=C(NCc1ccccc1)C(c1ccc(F)cc1)N(C(=O)c1csnn1)C1CCCC1", "note": "(stereo not given)", "Potency": "inconclusive: 18.5 µM [inhibitor, single point]"}
{"smiles": "Cc1ccc(S(=O)(=O)NN2C(=O)/C(=C/c3ccc(F)cc3)SC2=S)cc1", "Potency": "inconclusive: 18.5 µM [inhibitor, single point]"}
{"smiles": "N#C/C(=C(/O)c1ccco1)c1nc2ccccc2[nH]1", "Potency": "inconclusive: 1.85 µM [inhibitor, full curve]"}
{"smiles": "CC(C)(C)OC(=O)NCCC(=O)N/N=C/c1cccc2cccnc12", "activity change, negative = inhibition": "inactive: -9.69%"}
{"smiles": "CN(CCc1cn[nH]c1)Cc1nc(Cc2ccccc2)no1", "Potency": "inconclusive: 10.4 µM [inhibitor, single point]"}
{"smiles": "CCOc1cc2c(cc1C=O)OC(C)C2", "note": "(stereo not given)", "Potency": "inconclusive: 3.29 µM [inhibitor, full curve, poor fit]"}
{"smiles": "CCC(C)NC(=O)c1ccc(-n2c(=S)[nH]c3ccccc3c2=O)cc1", "note": "(stereo not given)", "Potency": "inconclusive: 2.62 µM [inhibitor, full curve, poor fit]"}
{"smiles": "COc1ccc(S(=O)(=O)n2ccc(-c3cnc(-c4ccccc4)s3)n2)cc1", "Potency": "inconclusive: 0.329 µM [inhibitor, full curve, poor fit]"}
{"smiles": "CCOCCCNC(=O)CCn1nc(-c2ccc(Cl)cc2)ccc1=O", "activity change, negative = inhibition": "inactive: 0%"}
{"smiles": "CCSC1=NC(C)(C)C=C(/C=C/c2ccc(Cl)cc2Cl)N1", "Potency": "inconclusive: 4.15 µM [inhibitor, full curve, poor fit]"}
{"smiles": "CC(C)(C)OC(=O)N1CCCN(C(=O)Nc2ccc(OC(F)(F)F)cc2)CC1", "Potency": "inconclusive: 5.86 µM [inhibitor, partial curve, poor fit]"}
{"smiles": "Cc1cc(N2CCCCCC2)n2nc(C)c(-c3ccccc3)c2n1", "Potency": "inconclusive: 13.1 µM [inhibitor, single point]"}
{"smiles": "Cc1ccc(CN(CC(O)COc2cccc3[nH]cc(C)c23)C(C)(C)C)cc1", "note": "(stereo not given)", "Potency": "active: 10.4 µM"}
{"smiles": "CCn1c(Cc2ccccc2)nnc1SCC(=O)Nc1ccc(C)cc1", "Potency": "inconclusive: 10.4 µM [inhibitor, partial curve, poor fit]"}
{"smiles": "NC(=O)[C@H](Cc1cc2ccccc2s1)NC(=O)[C@@H]1CC2(CC(c3cccc(NC(=O)[C@@H]4CCC(=O)N4)c3)=NO2)CN1C(=O)c1ccccc1", "note": "(stereo not given in full)", "Potency": "active: 10.4 µM"}
{"smiles": "COc1ccc(C2=NN(CC(=O)Nc3ccccc3C)C(=O)CC2)cc1", "Potency": "inconclusive: 4.15 µM [inhibitor, partial curve]"}
{"smiles": "Cc1ccc(OCC(=O)Nc2ccc3c(c2)OCO3)cc1C", "Potency": "inconclusive: 10.4 µM [inhibitor, single point]"}
{"smiles": "Cc1ccc(C)c(S(=O)(=O)N2CCCOC2CNC(=O)C(=O)NCCc2ccccc2)c1", "note": "(stereo not given)", "Potency": "inconclusive: 18.5 µM [inhibitor, single point]"}
{"smiles": "O=C(NC(Cc1ccccc1)C(=O)O)NC12CC3CC(CC(C3)C1)C2", "note": "(stereo not given)", "Potency": "inconclusive: 18.5 µM [inhibitor, single point]"}
{"smiles": "COc1ccccc1Nc1c2ccccc2nc2ccccc12", "Potency": "active: 2.33 µM"}
{"smiles": "Cc1ccc(/C=C(/NC(=O)c2ccccc2)C(=O)NCCc2c[nH]c3ccccc23)o1", "Potency": "inconclusive: 18.5 µM [inhibitor, partial curve, poor fit]"}
{"smiles": "CC(C)(C)OC(=O)NCc1ccc(NC(=O)c2nc[nH]c2C(=O)N[C@@H](Cc2ccccc2)C(=O)OC(C)(C)C)cc1", "Potency": "active: 8.28 µM"}
{"smiles": "Cc1c(NC(=O)c2cc(-c3ccco3)on2)c(=O)n(-c2ccccc2)n1C", "Potency": "inconclusive: 0.104 µM [inhibitor, full curve, poor fit]"}
{"smiles": "Cc1ccc(S(=O)(=O)CCC(O)c2ccc(Cl)cc2)cc1", "note": "(stereo not given)", "activity change, negative = inhibition": "inactive: 12.8%"}
{"smiles": "Cc1ccc(NC(=O)c2ccc3c(c2)OCCO3)cc1", "activity change, negative = inhibition": "inactive: 62.1%"}
{"smiles": "CC(=O)NC12CC3CC(C1)CC(C(=O)N1CCN(S(=O)(=O)c4cccs4)CC1)(C3)C2", "Potency": "inconclusive: 18.5 µM [inhibitor, single point]"}
{"smiles": "O=C(Nc1ccc2oc(-c3ccncc3)nc2c1)c1cccs1", "Potency": "inconclusive: 11.7 µM [inhibitor, single point]"}
{"smiles": "CC(NC(=O)CN1C(=O)NC(C)(C2CC2)C1=O)c1ccc(F)cc1", "note": "(stereo not given)", "activity change, negative = inhibition": "inactive: 1.55%"}
{"smiles": "CCOC(=O)C(CC(=O)Nc1nc(C(C)=O)c(C)s1)C(C)c1ccccc1", "note": "(stereo not given)", "Potency": "inconclusive: 11.7 µM [inhibitor, partial curve, poor fit]"}
{"smiles": "CC(C)CC1(C)NC(=O)N(CCN2C(=O)c3ccccc3C2=O)C1=O", "note": "(stereo not given)", "Potency": "inconclusive: 14.7 µM [inhibitor, single point]"}
{"smiles": "O=C(NCc1nnc(SCC(=O)N2CCCC2)o1)c1ccco1", "Potency": "inconclusive: 18.5 µM [inhibitor, single point]"}
{"smiles": "COc1ccc(NC(=O)CSc2n[nH]c(=O)n2C2CC2)cc1OC", "activity change, negative = inhibition": "inactive: -20.4%"}
{"smiles": "CCc1nc2ccccc2n1CCC(=O)O", "Potency": "inconclusive: 18.5 µM [inhibitor, single point]"}
{"smiles": "CS(=O)(=O)N1CCN(c2ccnc3cc(Cl)ccc23)CC1", "Potency": "inconclusive: 11.7 µM [inhibitor, single point]"}
{"smiles": "CCc1ccc(NC(=O)c2cnc(SC)nc2C)cc1", "Potency": "inconclusive: 0.738 µM [inhibitor, full curve]"}
{"smiles": "O=S(=O)(c1cnc(Cl)c(Cl)c1)N1CCCc2ccccc21", "activity change, negative = inhibition": "inactive: 3.37%"}
